Experimental data from PMC2359919, “Molecular targeting of retinoic acid metabolism in neuroblastoma: the role of the CYP26 inhibitor R116010 in vitro and in vivo” (British Journal of Cancer, 2007).

System: SH-SY5Y, NGP, SH-EP and GIMEN cells
Assay: Intracellular ATRA and 13cisRA concentrations in neuroblastoma cells, normal-phase HPLC
Assay type: cell-based, human
Details: 24 h
Experimental: SH-SY5Y, SH-EP (N- and S-type cells respectively derived from the parental line SK-N-SH), LAN6, IMR-32, NGP and GIMEN neuroblastoma cell lines were cultured routinely in RPMI 1640 medium containing fetal calf serum (10%) and L-glutamine (2 mM). Cells were grown at 37°C in a humidified incubator containing 5% CO2.
13-cis-Retinoic acid and ATRA were dissolved in DMSO and diluted in cell culture medium to obtain final concentrations of 0.1–10 μM. The final concentration of DMSO in all cases was <0.2%. All experiments were performed in dim light and tubes containing retinoids were wrapped in aluminium foil.
Cell pellets obtained from retinoid incubations were re-suspended in 2 ml cell culture medium and disrupted by passing the samples several times through a syringe and hypodermic needle (25G × 1 inches, 0.5 mm × 25 mm; Terumo, Somerset, NJ, USA). […] Samples were reconstituted in 200 μl mobile phase A (n-hexane:dichloromethane:propan-2-ol, 400 : 1 : 0.27) and analysed by normal-phase HPLC as described previously ([Veal et al, 2002]). […]
Quantification of retinoid levels was carried out by HPLC analysis using a Waters 2690 Separations Module and 996 Photodiode array detector (Waters Ltd, Elstree, UK) and Waters Millennium software for data acquisition. Cell volumes were determined as described previously ([Veal et al, 2002]), and intracellular RA concentrations were expressed in micromolars.

| Structure (SMILES) | 13cisRA as % of total RA after incubation with ATRA (10 μM ATRA alone or with R116010 (1 or 10 μM)) [%] | ATRA as % of total RA after 13cisRA incubation (10 μM 13cisRA alone or with R116010 (1 or 10 μM)) |
| --- | --- | --- |
| CC1=C(/C=C/C(C)=C/C=C/C(C)=C\C(=O)O)C(C)(C)CCC1 [13cisRA, 13-cis-retinoic acid] | < 10 |  |
| CC1=C(/C=C/C(C)=C/C=C/C(C)=C/C(=O)O)C(C)(C)CCC1 [ATRA, all-trans-retinoic acid] |  | 15–31% |
